Consider 1 molecule from paper doi:10.1101/614636.

Results are given in words; binding and its absence hold for the method and conditions named. Some results given as binding are weak or reduced against the parent protein; the word gives no strength.

The target of this test is T1, BREAKING OF … IN THE STOMATAL LINEAGE (BASL), full length, yeast two-hybrid bait (Arabidopsis thaliana) (UniProt Q5BPF3).
T1 sequence: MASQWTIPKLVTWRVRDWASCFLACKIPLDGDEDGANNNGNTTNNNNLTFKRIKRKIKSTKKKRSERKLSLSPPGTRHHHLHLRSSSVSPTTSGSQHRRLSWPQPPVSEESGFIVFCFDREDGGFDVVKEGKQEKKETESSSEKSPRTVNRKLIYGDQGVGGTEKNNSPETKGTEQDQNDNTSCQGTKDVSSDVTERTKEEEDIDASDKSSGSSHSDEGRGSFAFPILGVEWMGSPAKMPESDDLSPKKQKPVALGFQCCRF
In words: two-hybrid.

B1: BREVIS RADIX (BRX), pairwise yeast two-hybrid construct (protein, UniProt Q17TI5 1-344)
chain: MFSCIACTKADGGEEVEHGARGGTTPNTKEAVKSLTIQIKDMALKFSGAYKQCKPCTGSSSSPLKKGHRSFPDYDNASEGVPYPFMGGSAGSTPAWDFTNSSHHPAGRLESKFTSIYGNDRESISAQSCDVVLDDDGPKEWMAQVEPGVHITFASLPTGGNDLKRIRFSREMFDKWQAQRWWGENYDKIVELYNVQRFNRQALQTPARSDDQSQRDSTYSKMDSARESKDWTPRHNFRPPGSVPHHFYGGSSNYGPGSYHGGPPMDAARTTTSSRDDPPSMSNASEMQAEWIEEDEPGVYITIRQLSDGTRELRRVRFSRERFGEVHAKTWWEQNRERIQTQYL
For the molecule B1, the binding entry is “binds”.
